# Data as given in PubChem BioAssay AID1508597 (Cure First, 2020).
# Screen: 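Knock-downs altering ovarian cancer cell survival with or without PARP inhibitor rucaparib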 (primary screen)
# System: human ovarian carcinoma lines grown from tumours: OCI-P5x (papillary serous) and OCI-C5x (clear cell)
# Reagents: siRNA pool against human genes, 1.25 pmol siRNA per well
# Time to read-out: 72 h or 96 h, depending on the cell culture
# Challenge: rucaparib 20 µM (about IC30) or vehicle, present until read-out
# Measured: 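Luminescent ATP-based viability assay read 72 or 96 h after transfection, depending on culture, given as normalised percent viability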
# Reading the numbers: viability, normalised: higher = more viable cells remaining
# Rule for the call: 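a well counts as a hit if its normalised viability is under 80 percent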
# Calls: active = viability under 80%; inactive = viability 80% or more
# This is an unselected part of about 2,100 reagents. 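Calls flag viability under 80% in either arm, not effects specific to rucaparib; the reference for percent is not stated.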 Reagent sequences are not shown. Not stated in the record: the 100% reference.
gene,rucaparib or vehicle,cell line,technical replicate,"viability, normalised (%)",call
CTCFL (CCCTC-binding factor like),Rucaparib,OCI-C5x (clear cell),1,56.4,active
CTCFL (CCCTC-binding factor like),Rucaparib,OCI-C5x (clear cell),2,57.4,active
CTCFL (CCCTC-binding factor like),Rucaparib,OCI-C5x (clear cell),3,52.8,active
CTCFL (CCCTC-binding factor like),Rucaparib,OCI-P5x (serous),1,53.9,active
CTCFL (CCCTC-binding factor like),Rucaparib,OCI-P5x (serous),2,54.4,active
CTCFL (CCCTC-binding factor like),Rucaparib,OCI-P5x (serous),3,53.3,active
CTCFL (CCCTC-binding factor like),Vehicle,OCI-C5x (clear cell),1,39.5,active
CTCFL (CCCTC-binding factor like),Vehicle,OCI-C5x (clear cell),2,53.2,active
CTCFL (CCCTC-binding factor like),Vehicle,OCI-C5x (clear cell),3,44.1,active
CTCFL (CCCTC-binding factor like),Vehicle,OCI-P5x (serous),1,43.1,active
CTCFL (CCCTC-binding factor like),Vehicle,OCI-P5x (serous),2,46.7,active
CTCFL (CCCTC-binding factor like),Vehicle,OCI-P5x (serous),3,54.8,active
L3MBTL1 (L3MBTL histone methyl-lysine binding protein 1),Rucaparib,OCI-C5x (clear cell),1,44.5,active
L3MBTL1 (L3MBTL histone methyl-lysine binding protein 1),Rucaparib,OCI-C5x (clear cell),2,49.8,active
L3MBTL1 (L3MBTL histone methyl-lysine binding protein 1),Rucaparib,OCI-C5x (clear cell),3,44.4,active
L3MBTL1 (L3MBTL histone methyl-lysine binding protein 1),Rucaparib,OCI-P5x (serous),1,41.8,active
L3MBTL1 (L3MBTL histone methyl-lysine binding protein 1),Rucaparib,OCI-P5x (serous),2,51.8,active
L3MBTL1 (L3MBTL histone methyl-lysine binding protein 1),Rucaparib,OCI-P5x (serous),3,38.3,active
L3MBTL1 (L3MBTL histone methyl-lysine binding protein 1),Vehicle,OCI-C5x (clear cell),1,55.8,active
L3MBTL1 (L3MBTL histone methyl-lysine binding protein 1),Vehicle,OCI-C5x (clear cell),2,64.5,active
L3MBTL1 (L3MBTL histone methyl-lysine binding protein 1),Vehicle,OCI-C5x (clear cell),3,68.1,active
L3MBTL1 (L3MBTL histone methyl-lysine binding protein 1),Vehicle,OCI-P5x (serous),1,41.9,active
L3MBTL1 (L3MBTL histone methyl-lysine binding protein 1),Vehicle,OCI-P5x (serous),2,55.6,active
L3MBTL1 (L3MBTL histone methyl-lysine binding protein 1),Vehicle,OCI-P5x (serous),3,49.8,active
SMCHD1,Rucaparib,OCI-C5x (clear cell),1,46.8,active
SMCHD1,Rucaparib,OCI-C5x (clear cell),2,71.6,active
SMCHD1,Rucaparib,OCI-C5x (clear cell),3,55.9,active
SMCHD1,Rucaparib,OCI-P5x (serous),1,58.9,active
SMCHD1,Rucaparib,OCI-P5x (serous),2,56.5,active
SMCHD1,Rucaparib,OCI-P5x (serous),3,54.3,active
SMCHD1,Vehicle,OCI-C5x (clear cell),1,68.6,active
SMCHD1,Vehicle,OCI-C5x (clear cell),2,41.2,active
SMCHD1,Vehicle,OCI-C5x (clear cell),3,56.5,active
SMCHD1,Vehicle,OCI-P5x (serous),1,62.2,active
SMCHD1,Vehicle,OCI-P5x (serous),2,59.4,active
SMCHD1,Vehicle,OCI-P5x (serous),3,78.2,active
AMELX (amelogenin X-linked),Rucaparib,OCI-C5x (clear cell),1,40.5,active
AMELX (amelogenin X-linked),Rucaparib,OCI-C5x (clear cell),2,43.8,active
AMELX (amelogenin X-linked),Rucaparib,OCI-C5x (clear cell),3,43.2,active
AMELX (amelogenin X-linked),Rucaparib,OCI-P5x (serous),1,64.9,active
AMELX (amelogenin X-linked),Rucaparib,OCI-P5x (serous),2,54.2,active
AMELX (amelogenin X-linked),Rucaparib,OCI-P5x (serous),3,61.9,active
AMELX (amelogenin X-linked),Vehicle,OCI-C5x (clear cell),1,38.9,active
AMELX (amelogenin X-linked),Vehicle,OCI-C5x (clear cell),2,34.6,active
AMELX (amelogenin X-linked),Vehicle,OCI-C5x (clear cell),3,37.5,active
AMELX (amelogenin X-linked),Vehicle,OCI-P5x (serous),1,54.7,active
AMELX (amelogenin X-linked),Vehicle,OCI-P5x (serous),2,54.7,active
AMELX (amelogenin X-linked),Vehicle,OCI-P5x (serous),3,58.7,active
HLTF (helicase like transcription factor),Rucaparib,OCI-C5x (clear cell),1,58.3,active
HLTF (helicase like transcription factor),Rucaparib,OCI-C5x (clear cell),2,58.2,active
HLTF (helicase like transcription factor),Rucaparib,OCI-C5x (clear cell),3,53.6,active
HLTF (helicase like transcription factor),Rucaparib,OCI-P5x (serous),1,56.5,active
HLTF (helicase like transcription factor),Rucaparib,OCI-P5x (serous),2,61.5,active
HLTF (helicase like transcription factor),Rucaparib,OCI-P5x (serous),3,56.3,active
HLTF (helicase like transcription factor),Vehicle,OCI-C5x (clear cell),1,37.6,active
HLTF (helicase like transcription factor),Vehicle,OCI-C5x (clear cell),2,34,active
HLTF (helicase like transcription factor),Vehicle,OCI-C5x (clear cell),3,61.6,active
HLTF (helicase like transcription factor),Vehicle,OCI-P5x (serous),1,68.9,active
HLTF (helicase like transcription factor),Vehicle,OCI-P5x (serous),2,79.8,active
HLTF (helicase like transcription factor),Vehicle,OCI-P5x (serous),3,112,inactive

Part of the list above, reformatted.
gene | rucaparib or vehicle | cell line | technical replicate | viability, normalised (%) | call
CTCFL (CCCTC-binding factor like) | Rucaparib | OCI-C5x (clear cell) | 2 | 57.4 | active
CTCFL (CCCTC-binding factor like) | Rucaparib | OCI-C5x (clear cell) | 3 | 52.8 | active
